# In patent US20180136227A1, “Treatment and Diagnosis of Hereditary Xerocytosis” (Universite d'aix Marseille, priority 2015, published 2018):
# For at least one compound, name, drawing or mass did not settle the structure.
# Tested on: control red blood cells
# Assay: Osmotic fragility test in hypotonic saline, control red blood cells
# Settings: Senicapoc 4 or 0.4 μM, blood stored 25 hours at 37° C.
structure (smiles),measurement,value
"NC(=O)C(c1ccccc1)(c1ccc(F)cc1)c1ccc(F)cc1 [Senicapoc, bis(4-fluorophenyl)phenyl acetamide]",effect on osmotic resistance curve,did not alter
